Source: US20230181562A1, “USE OF A MULTIFUNCTIONAL LIGAND FOR TREATING DRY EYES, MEIBOMIAN GLAND DYSFUNCTIONS AND LACRIMAL GLAND DYSFUNCTIONS” (H4 ORPHAN PHARMA, priority 2020, published 2023)
For at least one compound, name, drawing or mass did not settle the structure.

Chains of the proteins cited; added tags and fusions are not shown.
UniProt P13569, whole entry, stated change not applied: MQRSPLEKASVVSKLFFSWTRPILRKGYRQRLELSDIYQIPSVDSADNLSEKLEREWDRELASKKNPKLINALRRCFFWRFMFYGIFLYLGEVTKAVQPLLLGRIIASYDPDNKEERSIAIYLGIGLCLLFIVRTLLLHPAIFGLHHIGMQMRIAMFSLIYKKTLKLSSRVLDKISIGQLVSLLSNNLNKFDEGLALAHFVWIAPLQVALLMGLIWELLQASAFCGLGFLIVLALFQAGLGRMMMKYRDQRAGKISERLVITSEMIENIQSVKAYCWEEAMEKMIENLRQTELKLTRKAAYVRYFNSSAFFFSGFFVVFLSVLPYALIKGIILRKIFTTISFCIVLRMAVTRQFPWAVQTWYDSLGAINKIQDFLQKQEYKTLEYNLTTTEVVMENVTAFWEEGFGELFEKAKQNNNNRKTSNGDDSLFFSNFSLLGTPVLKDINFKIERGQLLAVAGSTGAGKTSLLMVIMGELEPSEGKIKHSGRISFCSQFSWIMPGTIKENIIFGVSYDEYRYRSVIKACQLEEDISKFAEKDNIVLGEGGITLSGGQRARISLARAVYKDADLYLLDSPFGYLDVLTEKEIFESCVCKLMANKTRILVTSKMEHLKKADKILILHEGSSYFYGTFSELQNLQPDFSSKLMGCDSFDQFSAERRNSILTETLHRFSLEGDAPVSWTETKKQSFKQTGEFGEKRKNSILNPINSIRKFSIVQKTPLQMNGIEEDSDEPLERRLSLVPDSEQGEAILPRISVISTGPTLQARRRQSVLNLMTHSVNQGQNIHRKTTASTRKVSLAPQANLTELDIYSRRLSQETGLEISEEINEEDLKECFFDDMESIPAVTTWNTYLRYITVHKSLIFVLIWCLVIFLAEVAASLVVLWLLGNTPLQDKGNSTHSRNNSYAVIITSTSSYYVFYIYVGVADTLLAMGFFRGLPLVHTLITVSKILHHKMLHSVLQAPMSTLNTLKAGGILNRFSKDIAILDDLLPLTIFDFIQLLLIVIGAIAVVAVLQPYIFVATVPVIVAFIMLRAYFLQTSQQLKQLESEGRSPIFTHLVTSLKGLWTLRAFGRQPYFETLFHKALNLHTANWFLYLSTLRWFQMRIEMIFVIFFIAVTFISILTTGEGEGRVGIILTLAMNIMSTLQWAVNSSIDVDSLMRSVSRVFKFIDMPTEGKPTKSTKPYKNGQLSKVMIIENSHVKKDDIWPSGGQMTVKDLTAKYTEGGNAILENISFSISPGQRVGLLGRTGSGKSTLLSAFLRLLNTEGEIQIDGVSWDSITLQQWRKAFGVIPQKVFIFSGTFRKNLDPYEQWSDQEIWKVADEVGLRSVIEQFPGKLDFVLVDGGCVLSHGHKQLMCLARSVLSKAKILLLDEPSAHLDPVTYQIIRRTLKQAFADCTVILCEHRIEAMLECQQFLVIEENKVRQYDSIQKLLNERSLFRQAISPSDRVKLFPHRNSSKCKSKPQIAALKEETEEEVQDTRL

Target: T1, non-mutated CFTR (Homo sapiens, UniProt P13569)
T1 construct: host or cells: human epithelial cells (called glandular / lacrimal gland epithelial cells) grown on Snapwell filters
Experiment: Ussing chamber short-circuit current (ion transport via CFTR)
Type: cell-based
Conditions: forskolin 0.05 μM
Text: To investigate this action on CFTR modulation, the inventors used the Ussing chamber method, invented by the Dane Hans H. Ussing in the late 1950s. This technique makes it possible to study ionic exchanges across an epithelium, as it allows the tissue of interest to be kept alive for a few hours under controlled conditions of temperature and medium. The positioning of the tissue between two half-chambers makes it possible to define an apical compartment (corresponding to the lumen of the organ) and a basolateral compartment (corresponding to the blood compartment) and to investigate exchanges between these two compartments via the tissue.
This technique is used as a routine and is particularly well adapted for a pharmacological approach to ionic transport and to search for molecules of therapeutic interest in the context of ionic secretions of epithelial cells. It consists in measuring the transepithelial current (known as the short-circuit current and noted Ise). Ise is expressed in amperes to unit area of the epithelium (Ise in μA/cm^2). The cells are grown on a porous filter for 10 to 15 days at the liquid-liquid interface and then air-liquid interface in order to mimic conditions close to in vivo. The transepithelial resistance is measured regularly when culturing. […]

## C=C[C@@]1(C)CC(=O)[C@]2(O)[C@@]3(C)[C@@H](O)CCC(C)(C)[C@@H]3[C@H](O)[C@H](OC(C)=O)[C@@]2(C)O1 [forskolin]
non-mutated epithelial cells, apical side, changes from 20
  potential after addition of forskolin: 27 μA/cm^2
non-mutated lacrimal gland epithelial cells (second experiment), changes from 3.5
  potential after addition of forskolin: 6.5 μA/cm^2
